Out of some 53,000 sequences screened, about 3,700 (7%) were called active.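 The calls were made as follows: active = gene knockdowns whose robust z-score for IL-1 alpha signal is at least 2 or at most -2, so actives lie on both sides; inactive = the rest.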 This is one part of the list.

The nature of the assay: Components of the Cytosolic LPS Sensing Pathway: Gene Identification via Genome-wide siRNA Screen.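 Also: robust z of the log signal after scaling to non-targeting control siRNA wells of the plate.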 The settings on record: RAW264.7 macrophages, IL-1a HTRF, actives lie on both sides, screened at 100 nM (by protocol), cells primed 5 h with Pam3CSK4 first. The gist of the method:
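RAW264.7; siRNA 100 nM final, RNAiMAX, 48h 37 degrees C; Pam3CSK4 5 h; LipidA + TransIT-TKO 24 h; IL-1a HTRF; CellTiter-Glo viability; robust z vs negative-control median.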
A general note: TR-FRET usually uses a lanthanide donor and a delayed reading to cut background.
On to CCUCGUGUAAGUAUUUAGATT against Mrpl51, for which the z-score is inactive: 0.512.

Consider “GCCUACAACACAUUCAUUATT against A830039N20Rik”, for which the z-score is inactive: 0.982.

Turning to GGUUUCUCUCUACGCUAUGTT against Nrp2, the z-score was inactive: -0.817. “GGCAGGAAAGAAAAACGUATT against 4933402J07Rik”: the z-score was inactive: -0.145. For GGUAUUCACUGCUUCAUCUTT against Ubap2 the value was inactive: 0.65; for GCUGGCUGCAUAAACUUGUTT against Lipg, inactive: 0.899; for CCUGAGGUGCAGGACUAAUTT against Nars2, inactive: 0.589. The same measure for GCCUUACACCUGAAAUCGUTT against Ubxn2b: inactive: -1.86; for GCCUAUAGCACUGUGCCAUTT against Il17rd: inactive: -0.794; for GGGUACGUUCAAGUGCUUCTT against Agtpbp1: inactive: 1.74. For GGAUUCUUCACAGCGGAUGTT against Phyhd1 the value was inactive: 0.0446. Consider GGAAAAGGAGGAGAGUUAUTT against Nkapl, for which the z-score was inactive: 0.153. The same measure for GGGUAUGGUGGUCAAUAAATT against Gmnc: inactive: 0.646; for GGCAACUUUUAUCAAAAUGTT against Stk-ps2: inactive: 0.122. The same measure for GGAAAUCUGUGUGAUUGAATT against Pcca: inactive: -0.251; for GUGAUUUGAGAUAAUCUCCTT against Zfp182: inactive: -0.476. For GGAAGUAUUGACGAGUGGGTT against Orai3, the z-score was inactive: 0.0813. In the case of GGAGGAACAUAUCAAGGAATT against Tmem143, the z-score was active: 2.27. Take GGCCAAAUACCUUACCAAGTT against Pold2: the z-score was inactive: 0.767.

As to GGCAUUUUAUCUGUUAGACTT against Serpinh1, the z-score is inactive: -0.824. The same measure for GGCAACUAGCCCUAAAGGCTT against Tmem115: inactive: 1.05. For “GGCAAUUUGCUGUUUCAUATT against St6galnac5” the value was inactive: 0.132. Take GCAUCUUAUCAAAUAUCCATT against Abca1: the z-score is inactive: -0.0177. GGUCUCUGGUACACUUCAUTT against Ramp1: the z-score was inactive: 0.608. The same measure for CGAAGUGCUUCAAUAGUAATT against Rnf14: inactive: 0.737; for GCAUGUGGAGAAGAUGAGGTT against Tas2r143: inactive: 0.793; for GGGAAGGAGAGUAUUCCAATT against Mrpl14: active: 3.44. The same measure for CCGUUUGUCCCAGAUAUGATT against Rap1gap2: inactive: -0.43; for CCAGCUCAGUUCCAAACAATT against Dnajc12: inactive: -0.0206; for GCGAGUCGCUCAUAGUGAATT against Obsl1: inactive: -0.306. The same measure for GGCUGUGUAUGCUUUACCATT against Dnajc11: inactive: 0.812; for AUAAAGAUGUUGCUGUUGCTT against Olfr44: inactive: -0.992; for GGGACUCUAAAAUCUCAGGTT against Samd10: inactive: -0.863. Regarding GCUGUUGUGUACGUGAGCCTT against Tfr2, the z-score was inactive: -1.05.

Turning to GGCACUUAAGUAUUCUUCATT against Wac, the z-score was inactive: -0.412. The same measure for GGAGCACAGAAAACACAAGTT against Ncan: active: 3.41; for CGCUGUUUGAAUUUGUAUUTT against Nat10: inactive: 0.825. For GGUGCCAACCUCAAUUCAUTT against Hnf4a the value was inactive: 1.9; for GGUCUACUGGCGUAAUUACTT against Vsig4, inactive: -0.365. Take GCGUGUAAGUAUGAGAACCTT against Ptpdc1: the z-score is inactive: 0.322. As to GGACAGAGACAAGAAAAUATT against Ptpn11, the z-score is inactive: -0.931.

With GGACAAAUUGGUAGGAGGATT against Mslnl, the z-score is inactive: 0.374. Turning to GGACUGGAUUUCAUUUAGATT against Fgf9, the z-score is inactive: 0.755. The same measure for AACUAGCAAUAUGAUGGAGTT against Chic1: inactive: -0.55; for GGUAUUACUGAAAAGCACCTT against Spidr: inactive: 1.22. On to GGGACCUUGUAAUAGCAAATT against Inip, for which the z-score was inactive: 1.09. Regarding GGACAAGGAAACAAAUUCATT against F8, the z-score was inactive: 0.755. On to CCUUUGGUAAUCUCCAAAATT against Amph, for which the z-score was inactive: 0.862. Consider CGGACUAUCUCUAUGAAGATT against Tas2r108, for which the z-score is inactive: -0.587.

Take GGCCCUGGAAACUAAGCUUTT against Aldob: the z-score is inactive: -1.2. Take CCUUAAAUGGAGCUUCAGATT against Insrr: the z-score was inactive: 0.228. Take GGAUGAGGAAAACUUCCAGTT against Mup5: the z-score is active: 2.61. For the sequence GGUUUGGACACCUCUGUCATT against Adcy9, the z-score was inactive: -1.04. The same measure for GGGACACGUUUUCUGUGCATT against Lrrk1: inactive: -1.77. The same measure for CGGUGAAAGACUUCAGUAUTT against Ppfibp1: inactive: 0.578. GCUCAGGAACAUUUGGACATT against Cyp2a5: the z-score was inactive: 0.655. For GGGCUUGAAAGCAUACAAATT against Bcat2 the value was inactive: 1.3; for GCUCCAAAUCAGUGUGCAATT against Gm4759, inactive: 0.211.

For CCAACAAUGCCGCCAUCAUTT against Gmfg, the z-score was inactive: 0.108. With GGCUACGAUCCUACAGUGGTT against Rhebl1, the z-score is inactive: -0.283. Consider CCAAAUGUGCAGGUUGGAGTT against Exosc3, for which the z-score is inactive: -1.49. In the case of GGGAAAAUCAAGACCAAUUTT against Rpp30, the z-score is inactive: 1.34. As to GGUUACAGGAUGUUCUUAUTT against Fmo2, the z-score is inactive: -1.48. Regarding UUCAUUCAUAUGGACAGUUTT against Psg19, the z-score is inactive: 1.73. In the case of GGAAGGGUAAAUUUAGAAGTT against Arrdc3, the z-score was active: 2.83.

CCUGUGAACGCGACAUCAATT against Notch4: the z-score was inactive: 1.3. The same measure for GGAGAUCCAGUUUUUUAACTT against Ndst1: inactive: 0.566; for GGCAGGUUCGAAGAUGUCUTT against Mknk2: inactive: -0.67. For GGAAAAUAUUACUGAAGUGTT against Olfr1010 the value was inactive: 0.413.

Turning to GCCUGAUGACGGGAAAAUGTT against Glo1, the z-score was inactive: -0.911. The same measure for GCAGAAAAUAAAUCGAAGGTT against Sgo2a: inactive: 0.833; for GGCUUUGGAGGACUCAUUUTT against Uros: inactive: -1.02; for GGUCUUCUAAGAAAUUUUGTT against Fmnl2: inactive: 0.407. In the case of GGAGCUGAGCUCUCAGAAGTT against Eif3m, the z-score is inactive: -0.667.

With CCAGAAGUGGAUAAACUCUTT against Olfr122, the z-score was inactive: 1.11.

Take CCUUUUAACAGACAUGGUUTT against Tlr1: the z-score was inactive: -0.0397. For the sequence GCCUGACGGUUGUAAGAGUTT against Npc2, the z-score is inactive: 0.124.

On to “GGUUGGCUUCCUGAAGAUCTT against 1700037H04Rik”, for which the z-score is inactive: -1.23. Take GCUGUGAUCUCAGUAUUCATT against Strbp: the z-score was inactive: 0.443. In the case of GGGUGUUGAUGUCAUUGUGTT against Dbn1, the z-score was inactive: 1.51. For CCAAUGAAUACUUGUCAGCTT against Cpne2 the value was inactive: 0.168; for GCAUUUUAAUGCGCCAGUUTT against Atp2c1, inactive: -0.164. Regarding GGCUAUGAAGCAGUACAAGTT against Alyref2, the z-score was inactive: 0.135. For GCGAGUGGAACAGGAAUAUTT against Tmem63b the value was inactive: -0.137; for AGACCGACGUGAAAGAGGATT against Hand2, inactive: -0.985; for GGAGUGUGCUCAAUACACATT against Psmc3ip, inactive: 0.349. Regarding CCAAGGGAAGAUUCAAAUUTT against Abcc8, the z-score is active: 2.29.

With CCAACAGAACCAAUAAAGCTT against Btbd9, the z-score was inactive: -0.354. As to CCAUGAAUGAAGAUCUGUUTT against Taar7a, the z-score was inactive: -1.69. Turning to GCCUCCAGUUGUGAAGUUGTT against Klrg1, the z-score is inactive: 0.451.

On to GAAAGAAACGGCAGAUUGCTT against Vmn2r122, for which the z-score was inactive: 0.133.

Turning to GGACUUGAAAGACCUUGGATT against Map2k4, the z-score was inactive: 0.0565. In the case of GGCCAAUAAUGUGUUUCGUTT against Cmpk2, the z-score was inactive: -0.632. For GCGUGAACCUCCUUCUUGATT against Ramp3 the value was inactive: -1.29. As for GGGUUUCAACCGUCACCUGTT against Pygl, the z-score was inactive: -1.89. Take CCUCUAAAUCCUGAAGUGUTT against Gpat4: the z-score was inactive: -0.213.

Turning to GCAGUUCAUGUCCUGAAUATT against Olfr308, the z-score is inactive: -1.49.

As to GGUUAUUUAGCUAGCUUAGTT against Capza2, the z-score was inactive: -0.328. For the sequence GCUAGUUGAUAGUCAGAUATT against Tbrg4, the z-score is inactive: 0.985. Consider GCAAUCAAGCUUGAAAGUUTT against Dusp4, for which the z-score is inactive: 0.764.

As to GGACUUAUGUGACUUAUGUTT against Plet1, the z-score was inactive: -0.585. The same measure for GGUAUUGAGUAUCUUAGGUTT against Atf7: inactive: -0.543; for GCAACACAGUAUGUACAAUTT against Dsg4: inactive: 1.36; for CGUAGGUUUUAUAACAUGUTT against Tead3: inactive: 0.264. For CCUUCACAUAAGUUUCUGUTT against Nuak2 the value was inactive: 0.575; for GCUGCAUCGACAUAUCAGATT against Tle2, inactive: 0.628. The same measure for CGAAUUAUGGCACCGUCAATT against P2rx7: inactive: -0.647.

Source of the values: PubChem BioAssay AID1508600 (Functional Genomics Laboratory (NCATS/FGL), 2020).
